In article PMC5105131:
These are yes or no findings as the source states them, for the method shown. In cells and extracts the contact can be indirect. Some binding calls cover weakened binding; strength is not graded here.

The chains behind the UniProt entries cited, without tags or fusion partners.
UniProt P01106: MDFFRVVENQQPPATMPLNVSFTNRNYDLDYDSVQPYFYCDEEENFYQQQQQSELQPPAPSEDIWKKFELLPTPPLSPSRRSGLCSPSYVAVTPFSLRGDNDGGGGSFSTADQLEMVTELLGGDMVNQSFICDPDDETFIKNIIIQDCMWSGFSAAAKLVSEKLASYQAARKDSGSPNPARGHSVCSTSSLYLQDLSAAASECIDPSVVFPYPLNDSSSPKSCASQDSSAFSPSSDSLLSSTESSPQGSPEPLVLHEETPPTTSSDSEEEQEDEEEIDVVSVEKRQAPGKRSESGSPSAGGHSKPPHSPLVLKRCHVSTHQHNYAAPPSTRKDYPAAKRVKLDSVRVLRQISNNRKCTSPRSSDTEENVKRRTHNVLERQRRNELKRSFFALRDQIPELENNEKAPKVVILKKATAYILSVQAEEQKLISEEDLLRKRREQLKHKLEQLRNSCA
UniProt Q8IUF8: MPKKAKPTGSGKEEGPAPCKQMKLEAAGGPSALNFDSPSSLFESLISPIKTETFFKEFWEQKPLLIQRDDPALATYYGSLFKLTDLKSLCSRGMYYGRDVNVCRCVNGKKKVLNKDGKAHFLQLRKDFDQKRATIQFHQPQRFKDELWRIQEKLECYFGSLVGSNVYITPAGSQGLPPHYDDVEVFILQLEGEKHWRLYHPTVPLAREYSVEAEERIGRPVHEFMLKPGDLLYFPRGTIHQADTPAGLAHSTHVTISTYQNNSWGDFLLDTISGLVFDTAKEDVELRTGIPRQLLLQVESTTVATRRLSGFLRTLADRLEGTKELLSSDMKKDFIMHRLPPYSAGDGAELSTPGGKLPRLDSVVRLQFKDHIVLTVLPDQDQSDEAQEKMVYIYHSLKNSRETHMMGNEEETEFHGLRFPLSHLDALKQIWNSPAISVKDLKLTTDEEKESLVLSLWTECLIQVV

Molecular target: c-myc (human (endogenous in NCI-H929 and MM1S)) (UniProt P01106)
Experiment: co-IP; endogenous proteins in total cell lysates of NCI-H929 and MM1S cells, immunoblotting; IP antibodies against mdig, c-myc and JAK1

binding: binds
Substance: mdig (mineral dust-induced gene) (from UniProt Q8IUF8 1-465)
